# Assay results from PubChem BioAssay AID504834 (National Center for Advancing Translational Sciences (NCATS), 2011).
# Where “and” joins values, the source holds several entries; their conditions need not be identical. Equal values may be shown once. Hit rate of the full screen: of about 320,000 compounds, about 22,000 (6.9%) were called active. The inconclusive results got no clear call from the source; some entries with a clear call stand among them for comparison. The call rests on the fitted dose curve; in most records, active means well fitted inhibition curve with a large enough effect; inconclusive means small, poorly fitted or top-dose-only effect, or another doubt; inactive means no such curve, though single readings can be large or run the other way. A potency beside an inconclusive call is a rough fit, not a confirmed value.
# Test: Primary qHTS for delayed death inhibitors of the malarial parasite plastid, 96 hour incubation
# Conditions: P. falciparum luciferase reporter growth; series mostly up to 28.7 µM; activity change, negative = inhibition: at the top concentration
# Procedure, shortened: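 Infected RBCs, 2% Hct / 0.05% parasitemia final; luciferase-reporter P. falciparum; cpd 96 h, 37 C, 5% CO2; luciferase detection reagent; luminescence.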
# On the % scale 0 is the no-effect control and ±100 the full control effect; potency means the concentration at half of the fitted maximal effect.
Structure (SMILES),Potency,"activity change, negative = inhibition"
COc1cc(S(=O)(=O)N2CCOCC2)cc(C(=O)c2nccn2C)c1OC,"inconclusive: 10.4 µM [inhibitor, single point]",
Cc1ccc(C(=O)CC(Nc2ccc(F)cc2)c2ccccc2)cc1 (stereo unspecified),"inconclusive: 18.5 µM [inhibitor, single point]",
CCC1CCCCN1S(=O)(=O)c1ccc2c(c1)CCN2C(C)=O (stereo unspecified),,inactive: -19.8%
COc1ccc(CCNC(=O)COC(=O)C23CC4CC(CC(Br)(C4)C2)C3)cc1,"inconclusive: 13.1 µM [inhibitor, single point]",
O=C(O)c1cccc(NC(=O)c2cccc(S(=O)(=O)N3CCCCC3)c2)c1,"inconclusive: 0.0928 µM [inhibitor, full curve, poor fit]",
CCC1=Nc2cc(C(=O)NCCCN3CCOCC3)ccc2Sc2ccccc21,"inconclusive: 13.1 µM [inhibitor, partial curve, poor fit]",
CC(=O)C1=C(O)C(=O)N(c2ccc(Br)cc2)C1c1ccccc1[N+](=O)[O-] (stereo unspecified),"inconclusive: 1.85 µM [inhibitor, single point]",
CCOC(=O)c1ccc(NC(=O)COc2ccc(CNC3CCCCC3)cc2OC)cc1,,inactive: 28%
COc1ccccc1CNC(=O)COC(=O)CNS(=O)(=O)c1ccc(C)cc1,"inconclusive: 18.5 µM [inhibitor, single point]",
O=C(O)c1cccc(N2CCCCS2(=O)=O)c1,,inactive: 60%
Cc1ccccc1N=CC1=C(O)c2ccccc2C1=O,,inactive: -2.2%
COc1ccc(C2c3c(c(C)c(C)oc3=O)Oc3c(C)c(C)oc(=O)c32)cc1,,inactive: 10.5%
Cc1ccc(-n2c(C)nnc2SC(C)C(=O)N2CCCC2)cc1 (stereo unspecified),,inactive: -5.34%
O=C(Nc1ccc(N2CCCC2)cc1)c1ccc(Br)o1,"inconclusive: 9.28 µM [inhibitor, single point]",
Cc1cccc2c1cnn2C(=O)CCC(=O)NCC(C)c1ccccc1 (stereo unspecified),"inconclusive: 11.7 µM [inhibitor, partial curve, poor fit]",
CC1CC(C)CN(C(=O)CCC(=O)Nc2nnc(C(C)C)s2)C1 (stereo unspecified),"inconclusive: 16.5 µM [inhibitor, single point]",
CC1(C(=O)N(CC(=O)NC2CCCC2)Cc2ccco2)CC(=O)N=C2C=CC=CN21 (stereo unspecified),"inconclusive: 4.15 µM [inhibitor, partial curve, poor fit]",
C=CCNC(=O)CN(Cc1ccccc1)S(=O)(=O)c1ccccc1,"inconclusive: 14.7 µM [inhibitor, single point]",
COC(=O)c1ccc(C(=O)NC2CCCc3c2cnn3-c2ccccc2F)nc1 (stereo unspecified),"inconclusive: 0.0041 µM [inhibitor, full curve, poor fit]",
O=C(CCCc1ccccc1)NC1CCSC1=O (stereo unspecified),"inconclusive: 1.47 µM [inhibitor, partial curve]",
O=c1c(-c2ccc(Cl)cc2)c[nH]n1-c1ccccc1,active: 13.1 µM,
CCN1CCN(c2ccc(S(=O)(=O)N3CCCCC3)cc2NC(=O)c2cccc(OC(F)F)c2)CC1,active: 10.4 µM,
CCOCc1c(C(=O)OCC(=O)NCc2ccc(F)cc2)oc2ccccc12,,inactive: 14.5%

Structure (SMILES),Potency,"activity change, negative = inhibition"
Cc1ccc(C)c(NC(=O)CCc2nnc3ccc(N4CCCCC4)nn23)c1,"inconclusive: 18.5 µM [inhibitor, single point]",
S=C(NCc1cccnc1)NCc1cccnc1,active: 10.4 µM,
O=C(CCCN1CCC(n2c(=O)[nH]c3ccccc32)CC1)c1ccc(F)cc1,active: 572 nM and active: 10.4 µM,
COc1ccc(C(=O)COC(=O)c2cncc(Br)c2)cc1,,inactive: 12.1%
O=C(O)c1cc(-c2ccc(/C=C3\NC(=O)N(c4ccc(Cl)cc4)C3=O)o2)ccc1Cl,,inactive: -19.3%
Clc1ccc(CN=C(Nc2ccccc2)NC2CCCCC2)cc1,active: 9.28 µM,
CCOC(=O)/C(C#N)=C/c1ccc(OC(=O)c2ccco2)c(OCC)c1,"inconclusive: 18.5 µM [inhibitor, single point]",
COc1ccc(S(N)(=O)=O)cc1C(=O)NC1CCCc2ccccc21 (stereo unspecified),,inactive: 4.83%
CCOc1ccc(CCNC(=O)c2cccc(S(=O)(=O)N3CCOCC3)c2)cc1OCC,"inconclusive: 1.31 µM [inhibitor, partial curve, poor fit]",
OCCN(Cc1ccccc1)CC1CCCCC1,,inactive: 110%
CC(=O)Nc1ccc(Nc2nnc(-c3ccc(C)c(S(=O)(=O)NCC4CCCO4)c3)c3ccccc23)cc1 (stereo unspecified),active: 1.17 µM,
CCOC(=O)N1CCC(NC(=O)Cn2nc(Cc3ccncc3)c3ccccc3c2=O)CC1,"inconclusive: 2.33 µM [inhibitor, full curve, poor fit]",
COc1cccc2cc(C(=O)NCc3ccccn3)c(=O)oc12,"inconclusive: 13.1 µM [inhibitor, partial curve, poor fit]",
CC(C)C(=O)O/N=C(\N)c1ccc(Oc2ccc(Cl)cc2)c([N+](=O)[O-])c1,,inactive: 4.73%
Cc1ccc(C)c2c1cc(C)c1nnc(SCc3ccccn3)n12,,inactive: -22.2%
O=C(NCCCNCc1ccccc1)/C(=N\O)c1ccccc1,,inactive: -2.72%
CC1CCN(Cc2c(C(=O)N3CCc4ccccc4C3)nc3ccc(Cl)cn23)CC1,"inconclusive: 10.4 µM [inhibitor, single point]",
CCCSc1nsc(NC(=O)Nc2ccc(F)cc2F)n1,"inconclusive: 10.4 µM [inhibitor, single point]",
CCC(=O)Nc1cccc(-c2nnc(-c3cccc(NC(=O)CC)c3)o2)c1,active: 1.17 µM,
O=C(Nc1cc(C(F)(F)F)ccc1-n1cncn1)C1CC1,"inconclusive: 10.4 µM [inhibitor, partial curve]",
O=C(CSc1nnc(-c2cccnc2)s1)Nc1ccnc2ccccc12,"inconclusive: 11.7 µM [inhibitor, single point]",
CCOC(=O)C1CCN(C(=O)c2cc(S(=O)(=O)N(C)C)ccc2N2CCCC2)CC1,"inconclusive: 1.85 µM [inhibitor, full curve]",
O=C(c1ccc(F)cc1)N1CCC(C(=O)N2CCN(S(=O)(=O)c3cccc(Cl)c3)CC2)CC1,"inconclusive: 5.22 µM [inhibitor, partial curve]",

# Look-ups from the list:
# Potency, CC(=O)Nc1ccc(Nc2nnc(-c3ccc(C)c(S(=O)(=O)NCC4CCCO4)c3)c3ccccc23)cc1 (stereo unspecified) reads active: 1.17 µM
# activity change, negative = inhibition, Cc1ccc(C)c2c1cc(C)c1nnc(SCc3ccccn3)n12 reads inactive: -22.2%
